# Experimental data from PubChem BioAssay AID493014 (National Center for Advancing Translational Sciences (NCATS), 2011).
# The other results are listed elsewhere or left out. The main result of the screen is listed elsewhere. These columns were measured beside it and carry no call. The list favours compounds with an active or inconclusive main result. Words in brackets tell the shape of the fitted curve; partial curves, single points and poor fits give uncertain potencies.
# Test: qHTS Assay to Find Inhibitors of Chronic Active B-Cell Receptor Signaling
# Conditions: ABC-DLBCL IkBa-CBG/CBR reporter, luminescence ratio (green luciferase fused to IkBa over red control in TMD8 lymphoma cells), 4 h
# Procedure, shortened: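 Compounds up to 46 uM were incubated four hours with TMD8 cells whose green CBG68 luciferase is fused to IkappaBalpha; red CBR luminescence normalised the signal, and concentration-effect curves were fitted to fusion, red and ratio data.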
# [1] = measured here: CBR red luminescence, cell number
# [2] = measured here: IkBa-CBG green luminescence
SMILES,AC50 [1],AC50 [2]
CCN(CC)Cc1c(O)ccc2c([N+](=O)[O-])c(C)n(-c3ccc(OC)cc3)c12,"18.4 µM [falling, single point]",
COc1ccc(C2C(C(C)=O)=C(O)C(=O)N2c2ccc(Br)cc2)cc1 (stereo not drawn),"3.55 µM [rising, partial curve, poor fit]",
NC(=O)[C@@H]1CC2(CC(c3cccc(NC(=O)[C@H]4CCC(=O)N4)c3)=NO2)CN1C(=O)c1ccc(Cl)cc1 (stereo partly drawn),"5.62 µM [falling, single point]",
COc1ccc(-c2cc(C(=O)N3CCN(c4ccccc4OC)CC3)no2)cc1OC,"28.2 µM [falling, single point]",
COc1ccc(C(=O)NC(=S)Nc2cccnc2)cc1OC,"5.62 µM [rising, single point]",
O=c1c(Cl)c(Cl)cnn1Cc1nnc(-c2ccc(Cl)cc2)o1,"8.91 µM [falling, partial curve, poor fit]","11.2 µM [rising, partial curve, poor fit]"
Cc1cc(C)c(S(=O)(=O)NCCc2ccncc2)c(C)c1,"3.55 µM [rising, single point]",
COc1cccc(C(=O)N/N=C/C(Br)=C/c2ccccc2)c1,"23.1 µM [falling, partial curve]","29.1 µM [falling, single point]"
COc1cc(OC)c(OC)cc1/C=N/N(C)c1ccccc1,"5.8 µM [rising, partial curve, poor fit]",
COc1ccc(OC)c2c1C(=O)C(Cl)=C(Cl)C2=O,"3.98 µM [falling, full curve]","2.24 µM [rising, full curve, poor fit]"
O=C(CCCn1cnc([N+](=O)[O-])n1)Nc1cccc2ccccc12,"2.82 µM [falling, partial curve, poor fit]",
Fc1ccc(OCCOCCOc2cccc3[nH]ccc23)cc1,"12.6 µM [rising, partial curve, poor fit]",
Cc1ccc(NC(=S)N(Cc2ccco2)C(C)c2cccs2)c(Cl)c1 (stereo not drawn),"35.5 µM [falling, single point]",
O=C(Cc1cccs1)Nc1ccc([N+](=O)[O-])cc1,"0.447 µM [rising, partial curve, poor fit]",
O=S(=O)(c1cccs1)N1CCN(c2ccnc3cc(Cl)ccc23)CC1,"17.8 µM [falling, single point]",
CCOC(=O)N1CCC(N2CCCC(C(=O)c3cccc(OC(C)C)c3)C2)CC1 (stereo not drawn),"11.2 µM [falling, partial curve, poor fit]",
C#CCN(C)CC/C=C1\c2ccccc2CSc2ccccc21,"29.1 µM [falling, single point]",
C/C(=N\NC(=O)C1CCCC1)c1ccc(Cl)cc1,"0.794 µM [rising, partial curve, poor fit]",
CCCCCC(=O)Nc1cccc2ccccc12,"2.51 µM [falling, full curve, poor fit]",
COc1ccc(OCCSc2ncccn2)cc1,"6.51 µM [rising, partial curve, poor fit]",

SMILES,AC50 [1],AC50 [2]
Cc1c(C(=O)Nc2cccc(Cl)c2)oc2ccc(S(=O)(=O)N3CCCCCC3)cc12,,"0.631 µM [rising, full curve, poor fit]"
Cc1ccc(C(OCC(O)CNC(CO)C(O)c2ccc([N+](=O)[O-])cc2)c2ccccc2)cc1 (stereo not drawn),"7.08 µM [falling, partial curve, poor fit]","14.1 µM [rising, partial curve, poor fit]"
CC(=O)Nc1ccc(Nc2nc(C)c([N+](=O)[O-])c(Nc3ccccc3)n2)cc1,"29.1 µM [falling, single point]",
O=c1[nH]c(/C=C\c2cccnc2)c([N+](=O)[O-])c(=O)[nH]1,"35.5 µM [falling, single point]",
COc1ccccc1C(=O)NC1CCCc2ccccc21 (stereo not drawn),"8.91 µM [rising, partial curve, poor fit]",
CCOC(=O)C(O)(NC(=O)c1cccnc1)C(F)(F)F (stereo not drawn),"2.31 µM [rising, full curve, poor fit]",
COc1ccc(C2c3[nH]c4ccccc4c3CCN2C(=O)c2ccccc2C(C)=O)c(F)c1 (stereo not drawn),"11.2 µM [falling, partial curve]",
COc1ccc(C(=O)NCc2ccc3c(c2)OCO3)c(OC)c1,"3.55 µM [falling, partial curve, poor fit]",
COC(=O)c1c(NC(=O)CSc2ncn[nH]2)sc(C)c1C,"23.1 µM [falling, partial curve, poor fit]",
COC(=O)c1ccccc1S(=O)(=O)N1CCC(C(=O)N(C)CCOc2ccccc2)CC1,"29.1 µM [rising, single point]",
O=c1cc(C(F)(F)F)[nH]c2c(OC(F)(F)F)cccc12,"35.5 µM [falling, single point]",
Cc1cccc(/C(N)=N/OC(=O)CCCN2C(=O)c3ccccc3C2=O)c1,"5.62 µM [rising, single point]",
Cc1nc2ccccn2c1P(=Nc1ccccc1)(N(C)C)N(C)C,"1.58 µM [rising, partial curve, poor fit]",
CCc1nn(CC(=O)Nc2ccc(Br)c(C)c2)c(=N)s1,"35.5 µM [falling, single point]",
O=C(Nc1c(Cl)cccc1Cl)C1CCC1,"0.708 µM [falling, partial curve, poor fit]",
O=C(O)c1ccc2c(c1)C(=O)N(c1cc(C(=O)O)ccc1Br)C2=O,"2.06 µM [falling, partial curve, poor fit]",
O=C(Cc1nc2ccccc2[nH]1)c1ccc([N+](=O)[O-])cc1,"11.2 µM [falling, partial curve, poor fit]",
CC1=C(C(=O)OCc2ccccc2)C(c2ccsc2)NC(=O)N1C (stereo not drawn),"10 µM [falling, single point]",
COc1ccc(-c2nn(-c3ccccc3)cc2/C=N/Nc2ccc(S(N)(=O)=O)cc2[N+](=O)[O-])cc1OC,"35.5 µM [rising, single point]",

# Single records, as listed above:
# O=C(O)c1ccc2c(c1)C(=O)N(c1cc(C(=O)O)ccc1Br)C2=O is listed as AC50 [1]: 2.06 µM [falling, partial curve, poor fit]
# COc1ccccc1C(=O)NC1CCCc2ccccc21 (stereo not drawn) is listed as AC50 [1]: 8.91 µM [rising, partial curve, poor fit]
# Cc1nc2ccccn2c1P(=Nc1ccccc1)(N(C)C)N(C)C is listed as AC50 [1]: 1.58 µM [rising, partial curve, poor fit]
